Reference: publication PMC10011063
These are yes or no findings as the source states them, for the method shown. Binding seen in cells or lysates may run through a third protein. Some binding calls cover weakened binding; strength is not graded here. For part of these data: Sequences can lack the tags named with a protein. Values belong to the binder of their own block, whether it stands above or below them.

Protein sequences, listed by entry. Tags and fused reporters are not part of them.
UniProt P63016: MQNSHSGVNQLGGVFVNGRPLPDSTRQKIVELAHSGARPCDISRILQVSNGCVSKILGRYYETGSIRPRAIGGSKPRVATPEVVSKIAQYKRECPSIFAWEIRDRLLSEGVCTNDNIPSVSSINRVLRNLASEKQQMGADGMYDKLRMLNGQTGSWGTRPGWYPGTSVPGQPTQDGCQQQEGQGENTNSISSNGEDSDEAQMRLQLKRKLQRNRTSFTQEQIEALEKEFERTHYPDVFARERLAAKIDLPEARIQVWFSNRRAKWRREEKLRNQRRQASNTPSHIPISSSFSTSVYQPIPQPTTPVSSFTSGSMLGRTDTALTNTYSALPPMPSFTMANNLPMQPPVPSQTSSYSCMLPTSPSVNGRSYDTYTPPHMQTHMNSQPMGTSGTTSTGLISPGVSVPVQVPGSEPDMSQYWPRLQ

Experiments:
tagged PAX6 = tagged PAX6 (UniProt P63016); test: co-IP; HEK293T cells transfected with tagged RNF8 and tagged PAX6; immunoprecipitation of each in turn, immunoblot of the other
[1] = target: Paired Box 6 (PAX6) (rat (endogenous in cultured NSCs)) (UniProt P63016); test: co-IP; endogenous proteins in lysates of cultured rat NSCs (undifferentiated and after induction of differentiation, 0 h and 24 h for RNF8); antibody against the bait, Western blot of the partner; Pierce Co-IP kit, 4 °C overnight

binding (tagged PAX6): binds
B1: tagged RNF8 (enzyme, UniProt Q4KLN8 1-487)
chain: MGEPDPLVSGQLAARRSWCLRRLGMDREWLQLEAGSEVTIGRGFSVTYQLISKVCPLMISRNHCVLKQNPEGQWTIMDNKSLNGVWLNRERLAPLQGYCIRKGDHIQLGVPLESKEHAEYEYEVIEEDRESLAPCLAPKNDHTTEKHKGLRTKRKFSSDGVESLPAEGPSDLRCPLAKGSSKPAEPEKLHGKGEAASQPLGCLCPTLASLEASERTAGPHACSTLPKVLELYPKKQKACSPSASQSSLELFKMTMSRMLKLKTQMQEKQIAVLNVKRQARKGSSKKVVRMEKELRDLQSQLYAEQAQQQARVEQLEKTFQEEEQHLQGLEKEQGECDLKQQLLQALQEHRALMEELDRSKKDFEKIIQAKNKELERTKEEKDKVQAQKEEVLSHMNDVLENELQCIICSEYFIEAVTLNCAHSFCSFCISEWMKRKVECPICRKDIESRTNSLVLDNCISKMVERLSSDVKERRSVLIRERRAKRLL

binding [1]: binds
B2: ring finger protein 8 (RNF8) (enzyme, UniProt Q4KLN8 1-487)
chain: B1 chain

binding [1]: binds
B3: Lysine acetyltransferase 2A (KAT2A) (enzyme, UniProt D4ACX5 1-833)
chain: MAEPSQAPNPAPAAQPRPLQSPAPAPTSTPAPSPASAPTPAPTPAPAPAPAAAPAGSTGTGGAGVGSGGDPARPGLSQQQRASQRKAQVRGLPRAKKLEKLGVFSACKANETCKCNGWKNPKPPTAPRMDLQQPAANLSELCRSCEHPLADHVSHLENVSEDEINRLLGMVVDVENLFMSVHKEEDTDTKQVYFYLFKLLRKCILQMTRPVVEGSLGSPPFEKPNIEQGVLNFVQYKFSHLAPRERQTMFELSKMFLLCLNYWKLETPAQFRQRSQSEDVATYKVNYTRWLCYCHVPQSCDSLPRYETTHVFGRSLLRSIFTVTRRQLLEKFRVEKDKLVPEKRTLILTHFPKFLSMLEEEIYGANSPIWESGFTMPPSEGTQLVPRPATVSATVVPSTPIFSPSMGGGSNSSLSLDSTGTEPMPAGEKRKLPENLTLEDAKRLRVMGDIPMELVNEVMLTITDPAAMLGPETSLLSANAARDETARLEERRGIIEFHVIGNSLTPKANRRVLLWLVGLQNVFSHQLPRMPKEYIARLVFDPKHKTLALIKDGRVIGGICFRMFPTQGFTEIVFCAVTSNEQVKGYGTHLMNHLKEYHIKHSILYFLTYADEYAIGYFKKQGFSKDIKVPKSRYLGYIKDYEGATLMECELNPRIPYTELSHIIKKQKEIIKKLIERKQAQIRKVYPGLSCFKEGVRQIPVESVPGIRETGWKPLGKEKGKELKDPDQLYTTLKNLLAQIKSHPSAWPFMEPVKKSEAPDYYEVIRFPIDLKTMTERLRSRYYVTRKLFVADLQRVIANCREYNPPDSEYCRCASALEKFFYFKLKEGGLIDK
